# Experimental data published in paper PMC12375108.
# Protein sequences, listed by entry. Tags and fused reporters are not part of them. Residues count along the entry.
# UniProt P26443, residues 54-558: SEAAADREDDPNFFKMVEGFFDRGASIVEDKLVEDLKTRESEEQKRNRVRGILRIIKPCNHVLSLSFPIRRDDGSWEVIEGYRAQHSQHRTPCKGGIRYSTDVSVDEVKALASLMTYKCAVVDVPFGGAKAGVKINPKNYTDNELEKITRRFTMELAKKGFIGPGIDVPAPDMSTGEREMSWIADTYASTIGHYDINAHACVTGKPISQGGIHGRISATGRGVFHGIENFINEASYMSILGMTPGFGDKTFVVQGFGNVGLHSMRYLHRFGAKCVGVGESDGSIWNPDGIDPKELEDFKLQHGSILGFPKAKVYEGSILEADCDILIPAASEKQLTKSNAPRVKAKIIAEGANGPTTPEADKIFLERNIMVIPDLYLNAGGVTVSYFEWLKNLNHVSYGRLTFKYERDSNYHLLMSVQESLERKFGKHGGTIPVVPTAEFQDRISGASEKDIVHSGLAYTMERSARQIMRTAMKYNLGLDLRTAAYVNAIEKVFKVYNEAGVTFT
# Results are given in words; binding and its absence hold for the method and conditions named. In cells and extracts the contact can be indirect. Some entries that bind do so weakly or less than the wild type. Sequences can lack the tags named with a protein.
# Biological target: T1, GST-tagged E. coli hinT H101N (E. coli) (UniProt P0ACE7)
# T1 sequence: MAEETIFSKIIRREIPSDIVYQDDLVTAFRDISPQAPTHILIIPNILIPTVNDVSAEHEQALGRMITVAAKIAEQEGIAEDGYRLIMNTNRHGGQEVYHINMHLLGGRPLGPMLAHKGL
# Test: pull-down; 4 μg GST-hinT H101N on glutathione beads, 9 mg lysate of YUMM3.3ΔSelO cells stably expressing SelO, SelO D338A or SelO V334A, overnight at 4 °C; immunoblot with α-AMP, α-Glud1, α-pdhB, α-acat1, α-OGDH; only the target purified
substance,measurement,value
"AMPylated Glud1 (glutamate dehydrogenase), endogenous in YUMM3.3 cells expressing SelO (from UniProt P26443 54-558) (enzyme)",binding,binds
